Measurements reported in PubChem BioAssay AID2551 (National Center for Advancing Translational Sciences (NCATS), 2010).
Among all 310,000 compounds or so, about 17,000 (5.5%) were called active. The inconclusive results got no clear call from the source; some entries with a clear call stand among them for comparison. Calls follow the shape of the dose curve; as a rule, active = well fitted inhibition curve with a large enough effect; inconclusive = small, poorly fitted or top-dose-only effect, or effect the other way; inactive = no such curve, though single readings can be large or run the other way. A potency beside an inconclusive call is a rough fit, not a confirmed value.

The chains behind the UniProt entries cited, without tags or fusion partners. Where a name states a change or a piece, a line headed by the entry shows the natural chain unless it says otherwise.
UniProt P51450: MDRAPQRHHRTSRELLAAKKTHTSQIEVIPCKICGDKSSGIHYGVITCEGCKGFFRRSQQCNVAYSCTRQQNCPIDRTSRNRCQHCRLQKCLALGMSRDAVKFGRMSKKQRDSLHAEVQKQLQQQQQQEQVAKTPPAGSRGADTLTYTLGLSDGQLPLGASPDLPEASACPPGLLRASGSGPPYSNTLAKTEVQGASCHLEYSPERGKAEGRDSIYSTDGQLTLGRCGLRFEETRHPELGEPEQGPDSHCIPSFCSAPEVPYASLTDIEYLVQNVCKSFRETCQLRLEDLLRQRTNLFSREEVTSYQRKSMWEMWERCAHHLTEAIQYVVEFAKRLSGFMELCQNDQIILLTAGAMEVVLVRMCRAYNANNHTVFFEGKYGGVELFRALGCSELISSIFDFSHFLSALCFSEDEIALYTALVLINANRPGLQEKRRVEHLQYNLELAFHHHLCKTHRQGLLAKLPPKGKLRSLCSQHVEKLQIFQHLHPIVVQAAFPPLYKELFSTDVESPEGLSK

target: Nuclear receptor ROR-gamma (Mus musculus) (UniProt P51450); assay: qHTS for inhibitors of ROR gamma transcriptional activity; settings: Drosophila S2 Gal4-RORgamma UAS-luciferase reporter, 20 h; activity change, negative = inhibition: at 53.6 µM (top of the series); also: nearly all actives have a fitted effect of over 60% in size
Outline: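 ROR gamma transcriptional activity was tracked as Gal4-UAS luciferase output in stably transfected Drosophila Schneider cells, with compound added 1 hr before 700 uM copper sulfate induction and a 20 hr ambient-temperature incubation.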
% is scaled to controls: 0 for no effect and ±100 for the full control effect; potency is read from the fitted curve at half-maximal effect.

Row | SMILES | Potency | activity change, negative = inhibition
1 | COc1cccc(C(=O)N2N=C(c3ccccc3)CC2(O)C(F)(F)F)c1 (stereo unspecified) | active: 17.8 µM | 
2 | O=C(O)c1cccc(N2C(=O)c3cccc4cccc(c34)C2=O)c1 | inactive | 
3 | CC(C)CC(NC(=O)CNC(=O)C1O[C@@H]2OC(C)(C)O[C@@H]2[C@H]2OC(C)(C)O[C@@H]12)C(=O)O (stereo partly specified) | inactive | 
4 | O=[N+]([O-])c1ccc(O)c(C=Nc2cccc3ccccc23)c1 | inactive | 
5 | COC(=O)C1C(c2ccc(OC)c(OC)c2)NC(c2ccc(OC)c(OC)c2)C(C(=O)OC)S1(=O)=O (stereo unspecified) | inconclusive: 6.31 µM [inhibitor, single point] | 
6 | CC1(C)Cc2c(sc3nn[nH]c(=O)c23)CO1 | inactive | 
7 | CS(=O)(=O)c1ccc2nc(NC(=O)CN3CCN(Cc4ccccc4)CC3)sc2c1 | inconclusive: 10 µM [activator, partial curve, poor fit] | 
8 | CN(CC1CCCN(CCc2cccc(C(F)(F)F)c2)C1)C(=O)c1ccc2nc[nH]c2c1 (stereo unspecified) | inactive | 
9 | COC(=O)[C@H]1[C@H]2C[C@@H]3c4[nH]c5cc(OC)ccc5c4CCN3C[C@H]2C[C@@H](OC(=O)c2ccc(N)cc2)[C@@H]1OC | inactive | 
10 | O=C(NC(=S)Nc1ccc(S(=O)(=O)Nc2nccs2)cc1)c1cccnc1 | inactive | 
11 | COC(=O)c1ccc(CS(=O)(=O)c2ccc(C)cc2)cc1 | inconclusive: 35.5 µM [activator, single point] | 
12 | COC(=O)[C@H](C)NC(=O)C/C=C\[C@@H](C)CO |  | inactive: 5.26% [at 10 µM]
13 | S=C(NCc1ccccc1)Nc1nccs1 | active: 0.891 µM | 
14 | Oc1ccc(Br)cc1-c1cc(-c2ccccc2)n[nH]1 | active: 1.26 µM | 
15 | COc1cccc(NC(=O)Nc2ccc(CC(=O)O)cc2)c1 | inconclusive: 22.4 µM [inhibitor, single point] | 
16 | CC1CCc2nn(CC(=O)NCCC3=CCCCC3)cc2C1 (stereo unspecified) | inconclusive: 3.55 µM [inhibitor, single point] | 
17 | CC1(C)Cc2c(sc3nc(-c4ccccc4Cl)n(N)c(=O)c23)CO1 | inconclusive: 14.1 µM [activator, partial curve, poor fit] | 
18 | Nc1nc(-c2ccc(Cl)c(Cl)c2)c(-c2ccncc2)s1 | inconclusive: 7.08 µM [inhibitor, partial curve] | 
19 | CCOc1ccc(S(=O)(=O)Nc2cccc(C(=O)N(C)Cc3cccc(OC)c3OC)c2)cc1 | inconclusive: 7.94 µM [activator, partial curve] | 
20 | Cc1cc(S(=O)(=O)N2CCOCC2)ccc1OCC(=O)Nc1ccc(F)c(Cl)c1 | inconclusive: 31.6 µM [activator, single point] | 
21 | O=C(N/N=C/c1cn(-c2ccccc2)nc1-c1ccc2c(c1)OCCO2)c1ccncc1 | active: 2.24 µM | 
22 | COc1ccc(C(=O)NNC(=O)C(=O)Nc2ccc(C)cc2)cc1 | inactive | 
23 | CCOc1ccc(-c2nnc(NC(=O)Cc3ccc(OC)cc3)o2)cc1 | active: 1.78 µM | 
24 | COc1cccc2sc(Nc3nnc(-c4ccc(F)cc4)o3)nc12 | active: 2.24 µM | 
25 | COc1ccc(NC(=O)c2noc3c2CCCCC3)cc1 | inconclusive: 31.6 µM [inhibitor, single point] | 
26 | CC1(C)OC(C(O)(c2ccccc2)c2ccccc2)[C@@H](C(O)(c2ccccc2)c2ccccc2)O1 (stereo partly specified) | inconclusive: 35.5 µM [activator, partial curve] | 

Three compounds drawn at random from the list so far:
Row | SMILES | Potency | activity change, negative = inhibition
11 | COC(=O)c1ccc(CS(=O)(=O)c2ccc(C)cc2)cc1 | inconclusive: 35.5 µM [activator, single point] | 
19 | CCOc1ccc(S(=O)(=O)Nc2cccc(C(=O)N(C)Cc3cccc(OC)c3OC)c2)cc1 | inconclusive: 7.94 µM [activator, partial curve] | 
14 | Oc1ccc(Br)cc1-c1cc(-c2ccccc2)n[nH]1 | active: 1.26 µM | 

In the list so far, these have a thiophene ring, fused or not:
Row | SMILES | Potency | activity change, negative = inhibition
6 | CC1(C)Cc2c(sc3nn[nH]c(=O)c23)CO1 | inactive | 
17 | CC1(C)Cc2c(sc3nc(-c4ccccc4Cl)n(N)c(=O)c23)CO1 | inconclusive: 14.1 µM [activator, partial curve, poor fit] | 

Next results.

Row | SMILES | Potency | activity change, negative = inhibition
27 | Cc1ccc2nc(-c3ccc(NC(=O)CN4C(=O)NC(C)(c5ccc(OC(F)F)cc5)C4=O)cc3)sc2c1 (stereo unspecified) | inconclusive: 2.24 µM [inhibitor, partial curve, poor fit] | 
28 | O=C(CSc1nn(-c2ccc(F)cc2)c(=S)s1)NC(=O)NCc1ccco1 | inconclusive: 20 µM [activator, single point] | 
29 | Cc1cccc(NC(=S)NNC(=O)COc2ccc(Cl)cc2Cl)c1 | active: 4.47 µM | 
30 | O=C(Nc1cnn(Cc2ccc(Cl)cc2Cl)c1)c1noc2c1CCCC2 | inconclusive: 17.8 µM [activator, single point] | 
31 | Cc1c(Br)c([N+](=O)[O-])nn1CCCC(=O)Nc1sc2c(c1C#N)CCC2 | inconclusive: 11.2 µM [activator, partial curve, poor fit] | 
32 | CC(OC(=O)c1ccco1)C(=O)NC1CCCC1 (stereo unspecified) | inactive | 
33 | Cc1ccc(S(=O)(=O)Oc2ccc3c(c2)O/C(=C\c2cccnc2)C3=O)cc1 | inactive | 
34 | Cn1nnnc1NCc1ccccc1F | active: 0.631 µM | 
35 | CCOC(=O)c1cccc(-c2ccc(C=O)o2)c1 | inconclusive: 5.62 µM [activator, partial curve] | 
36 | COc1oc(=O)c2cc(N)ccc2c1Cl | active: 7.94 µM | 
37 | COCCn1c(COc2ccc(C)cc2)nc2ccccc21 | active: 11.2 µM | 
38 | O=C(CNC(=O)c1cnccc1C(F)(F)F)c1cccc(Cl)c1 | inactive | 
39 | CCCc1cc(=O)[nH]c(SCC(=O)Nc2ccc(OC(F)F)cc2)n1 | inactive | 
40 | O=C(NCCc1ccc(F)cc1)c1cccs1 | inactive | 
41 | CC(C)c1ccc(NC(=O)C2CC2c2ccccc2)cc1 (stereo unspecified) | inconclusive: 35.5 µM [activator, single point] | 
42 | CCCCCC(=O)NC(=S)NNC(=O)c1ccc([N+](=O)[O-])cc1 | active: 14.1 µM | 
43 | CN1C(=O)CC(C(=O)O)SC1=Nc1cc(Cl)cc(Cl)c1 (stereo unspecified) | inconclusive: 22.4 µM [activator, single point] | 
44 | COc1cc(NC(=S)NCCC(c2ccccc2)c2ccccc2)c(OC)cc1Cl | active: 5.01 µM | 
45 | Cc1sc2nc(C(C)C)nc(SCC(=O)N3c4ccccc4CC3C)c2c1C (stereo unspecified) | active: 8.91 µM | 
46 | CCNc1nc(SCCOc2ccc(Cl)cc2Cl)nc(N(C)C)n1 | inconclusive: 22.4 µM [inhibitor, single point] | 
47 | CC1CCC(C(C)C)C(=O)/C1=C/c1ccc(N)cc1 (stereo unspecified) | inactive | 
48 | O=C(Cc1ccc(F)cc1)c1ccc(O)cc1O | inconclusive: 12.6 µM [activator, single point] | 
49 | Cc1ccc(/C=C/C(=O)c2ccccc(=O)c2O)cc1C | active: 2.82 µM | 
50 | Cc1ccc(Nc2cc(-n3nc(C)cc3C)ncn2)c(C)c1 | inconclusive: 20 µM [inhibitor, single point] | 
51 | O=C(Oc1cccc(NC2=NS(=O)(=O)c3ccccc32)c1)c1cccnc1 | inactive | 
52 | O=[N+]([O-])c1cccc(S(=O)(=O)NCCc2ccccc2)c1 | inconclusive: 6.31 µM [activator, partial curve] | 

Row | SMILES | Potency | activity change, negative = inhibition
53 | CC(C)(C)c1ccc(-c2noc(C(=O)NN)n2)cc1 | active: 10 µM | 
54 | CCOc1ccc2c(c1)-c1c(ssc1=S)C(C)(C)N2 | inactive | 
55 | CCN(c1cccc(C)c1)S(=O)(=O)c1ccc2[nH]c(=O)c(=O)[nH]c2c1 | inactive | 
56 | O=C(CSc1ncnc2ccccc12)c1cccs1 | inconclusive: 22.4 µM [inhibitor, single point] | 
57 | CN(C)S(=O)(=O)c1cccc(NC(=O)Cc2ccc(-c3ccccc3)cc2)c1 | inactive | 
58 | Cc1ccc(-n2c(NN)nc3ccccc3c2=O)c(C)c1 | inconclusive: 35.5 µM [inhibitor, single point] | 
59 | O=C(NNc1ccccc1[N+](=O)[O-])Nc1ccccc1 | inactive | 
60 | COc1ccc(-c2cc(C(F)(F)F)n3nc(C(=O)O)cc3n2)cc1OC | inactive | 
61 | COc1cc(OC)c2c(c1C(CCN1CCCC1)c1ccc(N(C)C)cc1)OC(=O)CC2c1ccc(N(C)C)cc1 (stereo unspecified) | inactive | 
62 | CN(C)S(=O)(=O)c1ccc(NC(=O)C2COc3ccccc3O2)cc1 (stereo unspecified) | inconclusive: 31.6 µM [activator, single point] | 
63 | CCc1ccc(NC(=S)NC2CCN(Cc3ccccc3)CC2)cc1 | active: 10 µM | 
64 | Cc1cnc(NC(=O)Nc2ccc(Cl)cc2)s1 | inconclusive: 31.6 µM [inhibitor, single point] | 
65 | COC(=O)[C@H](NC(=O)c1cc(-c2ccccc2)nc2ccccc12)c1ccccc1 | inconclusive: 25.1 µM [activator, partial curve] | 
66 | Cc1ccc(-n2c(C)nc3c(cnn3-c3ccc(F)cc3)c2=O)cc1 | inactive | 
67 | Cn1cc(Cl)c(C(=O)NC(=S)Nc2sc3c(c2C#N)CCCCC3)n1 | inconclusive: 5.01 µM [inhibitor, single point] | 
68 | NC(=O)c1cc(Cc2ccccc2)sc1NC(=O)c1ccco1 | inconclusive: 20 µM [activator, partial curve, poor fit] | 
69 | Fc1ccc(-c2c[nH]c(=S)n2Cc2ccccc2)cc1 | active: 0.631 µM | 
70 | O=C1C2C(C(=O)N1/N=C/c1ccc([N+](=O)[O-])o1)C1C=CC2C12CC2 (stereo unspecified) | inconclusive: 17.8 µM [inhibitor, single point] | 
71 | Cc1cc2c(C)nc(N/N=C/c3ccc([N+](=O)[O-])cc3)nc2o1 | inconclusive: 8.91 µM [activator, partial curve] | 
72 | Cc1ccc(C(=O)N/N=C/c2cn(Cc3ccccc3)c3ccccc23)cn1 | inconclusive: 12.6 µM [inhibitor, partial curve, poor fit] | 
73 | COc1ccccc1-n1cc(C(=O)NCC(=O)N2CCN(c3ccccn3)CC2)c2ccccc2c1=O | inconclusive: 2.82 µM [inhibitor, partial curve] | 
74 | CC(=O)NS(=O)(=O)c1ccc(NC(=O)/C=C/c2cn(-c3ccccc3)nc2-c2ccccc2)cc1 | inconclusive: 12.6 µM [activator, partial curve] | 
75 | Cc1ccccc1NS(=O)(=O)c1cc(C(=O)Nc2cccc(N(C)S(C)(=O)=O)c2)ccc1C | inconclusive: 35.5 µM [activator, single point] | 
76 | C/C(=N\NC(=S)NC1CCCCC1)c1ccc(C)o1 | active: 0.631 µM | 
